The list shows a part of the results. Entries with a potency or affinity are not part of this list. The source made no clear call on entries shown without one.

We go through 48 molecules from PubChem BioAssay.

Assay [1] can be described thus: Drosophila SCA1 whole organism dose response for polyglutamine toxicity reduction (AID 1595). To be noted: Drosophila SCA1 polyglutamine model, at 1 µM, stronger effect = higher value.
The next assay is described as follows: PubChem AID 1597. Conditions: Drosophila SCA1 polyglutamine model, at 1 µM, stronger effect = higher value.

Regarding `CN(Cc1cc(Br)cc(Br)c1N)C1CCCCC1`, the results for the suppression of toxicity (in assay [1]; in the assay “PubChem AID 1597”) were 0 and 2.15, respectively.
On the same counts, the results for `CC(CCc1ccccc1)NCC(O)c1ccc(O)c(C(N)=O)c1` (stereo unspecified) are 1.43 and 2.85.
As to `c1ccc(CC2=NCCN2)cc1`, the suppression of toxicity is 2.86 in assay [1] and 1.43 in the assay “PubChem AID 1597”.
On the same counts, the results for `OC(Cn1cncn1)(Cn1cncn1)c1ccc(F)cc1F` are 0 and 0.
On the same counts, the results for `Nc1ccc(C(=O)NCC(=O)O)cc1` are 4.29 and 10.
As for `CN(C)CCCN1c2ccccc2Sc2ccccc21`, the suppression of toxicity (in assay [1]; in “PubChem AID 1597”) was 0 throughout.
With `COc1c2ccoc2cc2oc(=O)ccc12`, the suppression of toxicity came to 2.86 in assay [1] and 4.29 in “PubChem AID 1597”.
Take `O=C(O)c1cccnc1Nc1cccc(C(F)(F)F)c1`: the suppression of toxicity (in assay [1]; in the assay “PubChem AID 1597”) was 1.43 each time.
Regarding `CC(C)=CCc1c2c(c3occ(-c4ccc(O)c(O)c4)c(=O)c3c1O)C=CC(C)(C)O2`, the suppression of toxicity (in assay [1]; in “PubChem AID 1597”) was 0 throughout.
For the molecule `O=C(O)CCCCC1CCSS1` (stereo unspecified), the suppression of toxicity in assay [1] was determined as 1.43; in “PubChem AID 1597”, 2.15.
Take `CCCN(CCC)C(=O)C(CCC(=O)O)NC(=O)c1ccccc1` (stereo unspecified): the suppression of toxicity (in assay [1]; in the assay “PubChem AID 1597”) was 11.4 each time.
`CON`: the suppression of toxicity was found to be 1.43 in assay [1] and 16.4 in the assay “PubChem AID 1597”.
Take `C[C@]12CCC3c4ccc(O)cc4CCC3C1C[C@@H](O)[C@@H]2O` (stereo partly specified): the suppression of toxicity was found to be 12.9 in assay [1] and 2.15 in “PubChem AID 1597”.
For `O=C(O)c1ccc(S(=O)(=O)N(Cl)Cl)cc1`, in that order: 25.7 and 8.57.
On the same counts, the results for `CCN(CC)CCNC(=O)COc1ccc(OC)cc1` are 1.43 and 10.
On the same counts, the results for `CCCC(=O)O[C@]1(C(=O)CO)CCC2[C@@H]3CCC4=CC(=O)CC[C@]4(C)C3[C@@H](O)C[C@@]21C` (stereo partly specified) are 2.86 and 7.14.
In the case of `O=C(Cc1cccs1)NC1C(=O)N2C(C(=O)[O-])=C(C[n+]3ccccc3)CSC12` (stereo unspecified), the values for the suppression of toxicity (in assay [1]; in “PubChem AID 1597”) were 1.43 and 0.725, respectively.
For `O=C(O)c1cc(O)ccc1O`, in that order: 4.29 and 2.15.
As to `CC(C[N+](C)(C)C)OC(N)=O` (stereo unspecified), the results for the suppression of toxicity (in assay [1]; in “PubChem AID 1597”) were 1.43 and 11.4, respectively.
For `NC(=O)N/N=C/c1ccc([N+](=O)[O-])o1`, in that order: 2.85 and 5.71.
On the same counts, the results for `COc1ccc(-c2cc(=O)c3c(O)cc(O[C@@H]4O[C@H](CO[C@H]5O[C@H](C)[C@@H](O)[C@H](O)[C@@H]5O)[C@@H](O)[C@H](O)[C@H]4O)cc3o2)cc1O` are 0 and 0.
Turning to `COc1ccc2cc(CCC(C)=O)ccc2c1`, the suppression of toxicity in assay [1] worked out at 1.43; in the assay “PubChem AID 1597”, 3.58.
On the same counts, the results for `NCCCS(=O)(=O)O` are 4.29 and 3.57.
Turning to `NC(N)=NCCC[C@@H](NC(=O)[C@@H](N)Cc1ccc(O)cc1)C(=O)O`, the suppression of toxicity in assay [1] is 5.71; in “PubChem AID 1597”, 11.4.
For `O=c1[nH]cnc2[nH]ncc12`, in that order: 10 and 10.
On the same counts, the results for `CN1C(CC(=O)c2ccccc2)CCCC1CC(O)c1ccccc1` (stereo unspecified) are 0 and 10.
Take `C[C@H](CS)C(=O)N1CCC[C@H]1C(=O)O`: the suppression of toxicity turned out to be 5.71 in assay [1] and 8.57 in “PubChem AID 1597”.
On the same counts, the results for `CO[C@@H]1[C@@H](OC(N)=O)[C@@H](O)[C@H](Oc2ccc3c(O)c(NC(=O)c4ccc(O)c(CC=C(C)C)c4)c(=O)oc3c2C)OC1(C)C` are 0 and 2.85.
For `CC(=O)c1c(O)c(C)c(O)c2c1OC1=CC(=O)C(C(C)=O)C(=O)C12C` (stereo unspecified), in that order: 0 and 0.715.
As to `O=C1OCCN1/N=C/c1ccc([N+](=O)[O-])o1`, the suppression of toxicity in assay [1] was determined as 0; in the assay “PubChem AID 1597” it was 4.29.
On the same counts, the results for `CC12CCC(=O)C=C1CCC1C2[C@@H](O)CC2(C)C1CC[C@]2(O)C(=O)COP(=O)(O)O` (stereo partly specified) are 2.86 and 3.58.
On the same counts, the results for `CC(CN(C)C)CN1c2ccccc2CCc2ccccc21` (stereo unspecified) are 0 and 4.29.
On the same counts, the results for `COC1=CC(C)[C@@H]2C[C@H]3OC(=O)C[C@H]4C(C)=C(OC)C(=O)C([C@@]34C)[C@@]2(C)C1=O` (stereo partly specified) are 0 and 3.58.
On to `CC(C)NCC(O)COc1cccc2ccccc12` (stereo unspecified), for which the suppression of toxicity in assay [1] turned out to be 0; in “PubChem AID 1597”, 3.58.
Take `Oc1c(Br)cc(Br)c2cccnc12`: the figures for the suppression of toxicity (in assay [1]; in the assay “PubChem AID 1597”) were 1.43 and 6.42, respectively.
For `Cn1cnc([N+](=O)[O-])c1Sc1ncnc2nc[nH]c12`, in that order: 1.43 and 7.86.
For `CCN(CC)CCOC(=O)c1ccc(N)cc1`, in that order: 1.43 and 6.43.
As for `CC(=O)OCC(=O)[C@@]1(O)[C@H](OC(C)=O)CC2C3CCC4=CC(=O)C=C[C@]4(C)[C@@]3(F)[C@@H](O)C[C@@]21C` (stereo partly specified), the suppression of toxicity in assay [1] came to 11.4; in “PubChem AID 1597” it was 2.15.
For `CCOC(=O)CCC(=O)O[C@H]1[C@H](O[C@@H]2[C@@H](C)[C@H](O[C@H]3C[C@@](C)(OC)[C@@H](O)[C@H](C)O3)[C@@H](C)C(=O)O[C@H](CC)[C@@](C)(O)[C@H](O)[C@@H](C)C(=O)[C@H](C)C[C@@]2(C)O)O[C@H](C)C[C@@H]1N(C)C`, in that order: 1.43 and 4.29.
Regarding `NS(=O)(=O)c1cc2c(cc1C(F)(F)F)NCNS2(=O)=O`, the suppression of toxicity in assay [1] was determined as 0; in “PubChem AID 1597”, 3.58.
As for `O=C(O)c1cc(=O)c2cccc(O)c2[nH]1`, the figures for the suppression of toxicity (in assay [1]; in the assay “PubChem AID 1597”) were 4.29 and 12.1, respectively.
Take `Fc1ccc(C(c2ccc(F)cc2)N2CCN(C/C=C/c3ccccc3)CC2)cc1`: the figures for the suppression of toxicity (in assay [1]; in “PubChem AID 1597”) were 8.57 and 12.1, respectively.
As for `C[N+](C)(C)CCCCCC[N+](C)(C)C`, the suppression of toxicity (in assay [1]; in “PubChem AID 1597”) was 2.86 in each case.
For the molecule `NC(=O)c1cc[n+](CC2=C(C(=O)O)N3C(=O)C(NC(=O)C(c4ccccc4)S(=O)(=O)[O-])C3SC2)cc1` (stereo unspecified), the values for the suppression of toxicity (in assay [1]; in “PubChem AID 1597”) were 0 and 0.715, respectively.
For `COc1cc(S(C)=O)ccc1-c1nc2ncccc2[nH]1` (stereo unspecified), in that order: 1.43 and 6.42.
In the case of `C[n+]1ccccc1/C=N/O`, the suppression of toxicity is 4.29 in assay [1] and 7.86 in the assay “PubChem AID 1597”.
On to `CCC(=O)O[C@]1(C(=O)CCl)[C@@H](C)CC2C3CCC4=CC(=O)C=C[C@]4(C)[C@@]3(F)[C@@H](O)C[C@@]21C` (stereo partly specified), for which the suppression of toxicity in assay [1] is 1.43; in “PubChem AID 1597”, 2.85.
For `O=C(O)C1=CCNCC1`, in that order: 5.71 and 4.29.
